# Laboratory results taken from the supplement of paper PMC8728848.
# Some of the results follow.
# B1: PhypaEULS3 (Physcomitrella patens) (protein)
# chain: MLPVRLHCKADPNFNLAAVPGQGPVMVPFSPNDDFQVWYKDVTMSTRVKDETGSSAFSLINKATGQALRHAPEDLAQCLLADYDSNALDQTVLWTMSEDMGQGYCCIRLASQITRNLDVFRGDKKSGGVKEGSPVITFAWKKQDNQIWKMITAILEQKLISEEDLNSAVDHHHHHH
# What was measured:
# Experiment in all cases: glycan array binding signal (z-score within array); higher = stronger binding
# Details in all cases: glycan notation: IUPAC condensed, linker removed
# [1] = molecular target: Gal(b1-3)GlcNAc(b1-2)Man(a1-3)[Gal(b1-3)GlcNAc(b1-2)Man(a1-6)]Man(b1-4)GlcNAc(b1-4)[Fuc(a1-6)]GlcNAc
# How it was run: (§1)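 The binding signal is a Z-score computed within each array. Data were drawn from 3228 arrays in the Consortium for Functional Glycomics database, restricted to those with a known protein sequence. Scores were averaged over arrays of the same protein sequence at different concentrations or buffers, and over linkers, and negative values can be taken as non-binding.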
# [2] = molecular target: Gal(b1-3)GlcNAc(b1-2)Man(a1-3)[GlcNAc(b1-4)][Gal(b1-3)GlcNAc(b1-2)Man(a1-6)]Man(b1-4)GlcNAc(b1-4)GlcNAc
# How it was run: as §1
# [3] = molecular target: Gal(b1-3)GlcNAc(b1-2)[Gal(b1-3)GlcNAc(b1-6)]Man(a1-6)[Gal(b1-3)GlcNAc(b1-2)Man(a1-3)]Man(b1-4)GlcNAc(b1-4)GlcNAc
# How it was run: as §1
# [4] = molecular target: Gal(b1-3)GlcNAc(b1-3)Gal(b1-3)GlcNAc
# How it was run: as §1
# [5] = molecular target: Gal(b1-3)GlcNAc(b1-3)Gal(b1-4)Glc
# How it was run: as §1
# [6] = molecular target: Gal(b1-3)GlcNAc(b1-3)Gal(b1-4)GlcNAc
# How it was run: as §1
# [7] = molecular target: Gal(b1-3)GlcNAc(b1-3)Gal(b1-4)GlcNAc(b1-2)Man(a1-3)[Gal(b1-3)GlcNAc(b1-3)Gal(b1-4)GlcNAc(b1-2)Man(a1-6)]Man(b1-4)GlcNAc(b1-4)GlcNAc
# How it was run: as §1
# [8] = molecular target: Gal(b1-3)GlcNAc(b1-3)Gal(b1-4)GlcNAc(b1-2)[Gal(b1-3)GlcNAc(b1-3)Gal(b1-4)GlcNAc(b1-6)]Man(a1-6)[Gal(b1-3)GlcNAc(b1-3)Gal(b1-4)GlcNAc(b1-2)Man(a1-3)]Man(b1-4)GlcNAc(b1-4)[Fuc(a1-6)]GlcNAc
# How it was run: as §1
# [9] = molecular target: Gal(b1-3)GlcNAc(b1-3)Gal(b1-4)GlcNAc(b1-3)Gal(b1-4)GlcNAc(b1-2)[Gal(b1-3)GlcNAc(b1-3)Gal(b1-4)GlcNAc(b1-3)Gal(b1-4)GlcNAc(b1-6)]Man(a1-6)[Gal(b1-3)GlcNAc(b1-3)Gal(b1-4)GlcNAc(b1-3)Gal(b1-4)GlcNAc(b1-2)Man(a1-3)]Man(b1-4)GlcNAc(b1-4)[Fuc(a1-6)]GlcNAc
# How it was run: as §1
# [10] = molecular target: Gal(b1-3)GlcNAc(b1-3)Gal(b1-4)GlcNAc(b1-6)[Gal(b1-3)GlcNAc(b1-3)]Gal(b1-4)Glc
# How it was run: as §1
# [11] = molecular target: Gal(b1-3)GlcNAc(b1-3)Gal(b1-4)[Fuc(a1-3)]GlcNAc
# How it was run: as §1
# [12] = molecular target: Gal(b1-3)GlcNAc(b1-3)Gal(b1-4)[Fuc(a1-3)]GlcNAc(b1-6)[Gal(b1-3)GlcNAc(b1-3)]Gal(b1-4)Glc
# How it was run: as §1
# [13] = molecular target: Gal(b1-3)GlcNAc(b1-3)GalNAc
# How it was run: as §1
# [14] = molecular target: Gal(b1-3)GlcNAc(b1-6)Gal(b1-4)GlcNAc
# How it was run: as §1
# [15] = molecular target: Gal(b1-3)GlcNAc(b1-6)GalNAc
# How it was run: as §1
# [16] = molecular target: Gal(b1-3)GlcNAc(b1-6)[Gal(b1-3)]GalNAc
# How it was run: as §1
# Gal(b1-3)GlcNAc6S = molecular target: Gal(b1-3)GlcNAc6S
# How it was run: as §1
# [17] = molecular target: Gal(b1-3)[Fuc(a1-4)]GlcNAc
# How it was run: as §1
# [18] = molecular target: Gal(b1-3)[Fuc(a1-4)]GlcNAc(b1-2)Man
# How it was run: as §1
# [19] = molecular target: Gal(b1-3)[Fuc(a1-4)]GlcNAc(b1-2)Man(a1-3)[Gal(b1-3)[Fuc(a1-4)]GlcNAc(b1-2)Man(a1-6)]Man(b1-4)GlcNAc(b1-4)[Fuc(a1-6)]GlcNAc
# How it was run: as §1
# [20] = molecular target: Gal(b1-3)[Fuc(a1-4)]GlcNAc(b1-3)Gal(b1-3)[Fuc(a1-4)]GlcNAc
# How it was run: as §1
# [21] = molecular target: Gal(b1-3)[Fuc(a1-4)]GlcNAc(b1-3)Gal(b1-4)[Fuc(a1-3)]GlcNAc
# How it was run: as §1
# [22] = molecular target: Gal(b1-3)[Fuc(a1-4)]GlcNAc(b1-6)GalNAc
# How it was run: as §1
# [23] = molecular target: Gal(b1-3)[GlcNAc(b1-6)]GalNAc
# How it was run: as §1
# [24] = molecular target: Gal(b1-3)[Neu5Ac(a2-6)]GalNAc
# How it was run: as §1
# [25] = molecular target: Gal(b1-3)[Neu5Ac(a2-6)]GlcNAc(b1-4)Gal(b1-4)Glc
# How it was run: as §1
# [26] = molecular target: Gal(b1-3)[Neu5Ac(b2-6)]GalNAc
# How it was run: as §1
# Gal(b1-4)Gal = molecular target: Gal(b1-4)Gal
# How it was run: as §1
# [27] = molecular target: Gal(b1-4)GalNAc(a1-3)[Fuc(a1-2)]Gal(b1-4)GlcNAc
# How it was run: as §1
# [28] = molecular target: Gal(b1-4)GalNAc(b1-3)[Fuc(a1-2)]Gal(b1-4)GlcNAc
# How it was run: as §1
# Gal(b1-4)Glc = molecular target: Gal(b1-4)Glc
# How it was run: as §1
# Gal(b1-4)Glc6S = molecular target: Gal(b1-4)Glc6S
# How it was run: as §1
# Gal(b1-4)GlcNAc = molecular target: Gal(b1-4)GlcNAc
# How it was run: as §1
# [29] = molecular target: Gal(b1-4)GlcNAc(a1-6)Gal(b1-4)GlcNAc
# How it was run: as §1
# Gal(b1-4)GlcNAc(b1-2)Man = molecular target: Gal(b1-4)GlcNAc(b1-2)Man
# How it was run: as §1
# [30] = molecular target: Gal(b1-4)GlcNAc(b1-2)Man(a1-3)Man(b1-4)GlcNAc(b1-4)GlcNAc
# How it was run: as §1
# [31] = molecular target: Gal(b1-4)GlcNAc(b1-2)Man(a1-3)[Gal(b1-4)GlcNAc(b1-2)Man(a1-6)]Man(b1-4)GlcNAc(b1-4)GlcNAc
# How it was run: as §1
# [32] = molecular target: Gal(b1-4)GlcNAc(b1-2)Man(a1-3)[Gal(b1-4)GlcNAc(b1-2)Man(a1-6)]Man(b1-4)GlcNAc(b1-4)[Fuc(a1-6)]GlcNAc
# How it was run: as §1
# [33] = molecular target: Gal(b1-4)GlcNAc(b1-2)Man(a1-3)[Gal(b1-4)GlcNAc(b1-2)Man(a1-6)][Gal(b1-4)GlcNAc(b1-4)]Man(b1-4)GlcNAc(b1-4)[Fuc(a1-6)]GlcNAc
# How it was run: as §1
# [34] = molecular target: Gal(b1-4)GlcNAc(b1-2)Man(a1-3)[Gal(b1-4)GlcNAc(b1-2)Man(a1-6)][GlcNAc(b1-4)]Man(b1-4)GlcNAc(b1-4)[Fuc(a1-6)]GlcNAc
# How it was run: as §1
# [35] = molecular target: Gal(b1-4)GlcNAc(b1-2)Man(a1-3)[GlcNAc(b1-2)Man(a1-6)]Man(b1-4)GlcNAc(b1-4)GlcNAc
# How it was run: as §1
# [36] = molecular target: Gal(b1-4)GlcNAc(b1-2)Man(a1-3)[GlcNAc(b1-4)][Gal(b1-4)GlcNAc(b1-2)Man(a1-6)]Man(b1-4)GlcNAc(b1-4)GlcNAc
# How it was run: as §1
# [37] = molecular target: Gal(b1-4)GlcNAc(b1-2)Man(a1-3)[Man(a1-6)]Man(b1-4)GlcNAc(b1-4)GlcNAc
# How it was run: as §1
# [38] = molecular target: Gal(b1-4)GlcNAc(b1-2)Man(a1-6)Man(b1-4)GlcNAc(b1-4)GlcNAc
# How it was run: as §1
# [39] = molecular target: Gal(b1-4)GlcNAc(b1-2)Man(a1-6)[GlcNAc(b1-2)Man(a1-3)]Man(b1-4)GlcNAc(b1-4)GlcNAc
# How it was run: as §1
binder,measurement,setting,value
B1,glycan array binding signal (z-score),[1],-0.657
same,glycan array binding signal (z-score),[2],1.05
same,glycan array binding signal (z-score),[3],0.13
same,glycan array binding signal (z-score),[4],-0.669
same,glycan array binding signal (z-score),[5],-0.828
same,glycan array binding signal (z-score),[6],-1.09
same,glycan array binding signal (z-score),[7],-0.459
same,glycan array binding signal (z-score),[8],-0.384
same,glycan array binding signal (z-score),[9],0.919
same,glycan array binding signal (z-score),[10],1.64
same,glycan array binding signal (z-score),[11],0.815
same,glycan array binding signal (z-score),[12],0.149
same,glycan array binding signal (z-score),[13],1.25
same,glycan array binding signal (z-score),[14],1.01
same,glycan array binding signal (z-score),[15],1.29
same,glycan array binding signal (z-score),[16],-0.444
same,glycan array binding signal (z-score),Gal(b1-3)GlcNAc6S,1.42
same,glycan array binding signal (z-score),[17],-0.114
same,glycan array binding signal (z-score),[18],0.924
same,glycan array binding signal (z-score),[19],-0.195
same,glycan array binding signal (z-score),[20],-0.253
same,glycan array binding signal (z-score),[21],0.581
same,glycan array binding signal (z-score),[22],-0.015
same,glycan array binding signal (z-score),[23],-0.997
same,glycan array binding signal (z-score),[24],-0.203
same,glycan array binding signal (z-score),[25],0.491
same,glycan array binding signal (z-score),[26],0.173
same,glycan array binding signal (z-score),Gal(b1-4)Gal,0.1
same,glycan array binding signal (z-score),[27],-1.36
same,glycan array binding signal (z-score),[28],-1.04
same,glycan array binding signal (z-score),Gal(b1-4)Glc,-0.054
same,glycan array binding signal (z-score),Gal(b1-4)Glc6S,0.095
same,glycan array binding signal (z-score),Gal(b1-4)GlcNAc,-0.988
same,glycan array binding signal (z-score),[29],0.599
same,glycan array binding signal (z-score),Gal(b1-4)GlcNAc(b1-2)Man,1.11
same,glycan array binding signal (z-score),[30],0.27
same,glycan array binding signal (z-score),[31],-0.056
same,glycan array binding signal (z-score),[32],-0.773
same,glycan array binding signal (z-score),[33],0.873
same,glycan array binding signal (z-score),[34],0.268
same,glycan array binding signal (z-score),[35],-0.053
same,glycan array binding signal (z-score),[36],0.673
same,glycan array binding signal (z-score),[37],1.14
same,glycan array binding signal (z-score),[38],0.608
same,glycan array binding signal (z-score),[39],-0.146

# Some of the entries above, reformatted:
binder | measurement | setting | value
B1 | glycan array binding signal (z-score) | [13] | 1.25
same | glycan array binding signal (z-score) | [23] | -0.997
